Test results: patent US11065203B2, “Liposomal compositions and uses of same” (Technion Research & Development Foundation Limited, priority 2009, dated 2021)

B1: P21291 (protein, UniProt P21291 1-193, looked up)
chain: MPNWGGGKKCGVCQKTVYFAEEVQCEGNSFHKSCFLCMVCKKNLDSTTVAVHGEEIYCKSCYGKKYGPKGYGYGQGAGTLSTDKGESLGIKHEEAPGHRPTTNPNASKFAQKIGGSERCPRCSQAVYAAEKVIGAGKSWHKACFRCAKCGKGLESTTLADKDGEIYCKGCYAKNFGPKGFGFGQGAGALVHSE
modifications: full-length
B2: P62879 (protein, UniProt P62879 1-340, looked up)
chain: MSELEQLRQEAEQLRNQIRDARKACGDSTLTQITAGLDPVGRIQMRTRRTLRGHLAKIYAMHWGTDSRLLVSASQDGKLIIWDSYTTNKVHAIPLRSSWVMTCAYAPSGNFVACGGLDNICSIYSLKTREGNVRVSRELPGHTGYLSCCRFLDDNQIITSSGDTTCALWDIETGQQTVGFAGHSGDVMSLSLAPDGRTFVSGACDASIKLWDVRDSMCRQTFIGHESDINAVAFFPNGYAFTTGSDDATCRLFDLRADQELLMYSHDNIICGITSVAFSRSGRLLLAGYDDFNCNIWDAMKGDRAGVLAGHDNRVSCLGVTDDGMAVATGSWDSFLKIWN
modifications: full-length
B3: Q92499 (protein, UniProt Q92499 1-740, looked up)
chain: MAAFSEMGVMPEIAQAVEEMDWLLPTDIQAESIPLILGGGDVLMAAETGSGKTGAFSIPVIQIVYETLKDQQEGKKGKTTIKTGASVLNKWQMNPYDRGSAFAIGSDGLCCQSREVKEWHGCRATKGLMKGKHYYEVSCHDQGLCRVGWSTMQASLDLGTDKFGFGFGGTGKKSHNKQFDNYGEEFTMHDTIGCYLDIDKGHVKFSKNGKDLGLAFEIPPHMKNQALFPACVLKNAELKFNFGEEEFKFPPKDGFVALSKAPDGYIVKSQHSGNAQVTQTKFLPNAPKALIVEPSRELAEQTLNNIKQFKKYIDNPKLRELLIIGGVAARDQLSVLENGVDIVVGTPGRLDDLVSTGKLNLSQVRFLVLDEADGLLSQGYSDFINRMHNQIPQVTSDGKRLQVIVCSATLHSFDVKKLSEKIMHFPTWVDLKGEDSVPDTVHHVVVPVNPKTDRLWERLGKSHIRTDDVHAKDNTRPGANSPEMWSEAIKILKGEYAVRAIKEHKMDQAIIFCRTKIDCDNLEQYFIQQGGGPDKKGHQFSCVCLHGDRKPHERKQNLERFKKGDVRFLICTDVAARGIDIHGVPYVINVTLPDEKQNYVHRIGRVGRAERMGLAISLVATEKEKVWYHVCSSRGKGCYNTRLKEDGGCTIWYNEMQLLSEIEEHLNCTISQVEPDIKVPVDEFDGKVTYGQKRAAGGGSYKGHVDILAPTVQELAALEKEAQTSFLHLGYLPNQLFRTF
modifications: full-length
B4: P15313 (protein, UniProt P15313 1-513, looked up)
chain: MAMEIDSRPGGLPGSSCNLGAAREHMQAVTRNYITHPRVTYRTVCSVNGPLVVLDRVKFAQYAEIVHFTLPDGTQRSGQVLEVAGTKAIVQVFEGTSGIDARKTTCEFTGDILRTPVSEDMLGRVFNGSGKPIDKGPVVMAEDFLDINGQPINPHSRIYPEEMIQTGISPIDVMNSIARGQKIPIFSAAGLPHNEIAAQICRQAGLVKKSKAVLDYHDDNFAIVFAAMGVNMETARFFKSDFEQNGTMGNVCLFLNLANDPTIERIITPRLALTTAEFLAYQCEKHVLVILTDMSSYAEALREVSAAREEVPGRRGFPGYMYTDLATIYERAGRVEGRGGSITQIPILTMPNDDITHPIPDLTGFITEGQIYVDRQLHNRQIYPPINVLPSLSRLMKSAIGEGMTRKDHGDVSNQLYACYAIGKDVQAMKAVVGEEALTSEDLLYLEFLQKFEKNFINQGPYENRSVFESLDLGWKLLRIFPKEMLKRIPQAVIDEFYSREGALQDLAPDTAL
modifications: full-length
B5: Q9UBS4 (protein, UniProt Q9UBS4 1-358, looked up)
chain: MAPQNLSTFCLLLLYLIGAVIAGRDFYKILGVPRSASIKDIKKAYRKLALQLHPDRNPDDPQAQEKFQDLGAAYEVLSDSEKRKQYDTYGEEGLKDGHQSSHGDIFSHFFGDFGFMFGGTPRQQDRNIPRGSDIIVDLEVTLEEVYAGNFVEVVRNKPVARQAPGKRKCNCRQEMRTTQLGPGRFQMTQEVVCDECPNVKLVNEERTLEVEIEPGVRDGMEYPFIGEGEPHVDGEPGDLRFRIKVVKHPIFERRGDDLYTNVTISLVESLVGFEMDITHLDGHKVHISRDKITRPGAKLWKKGEGLPNFDNNNIKGSLIITFDVDFPKEQLTEEAREGIKQLLKQGSVQKVYNGLQGY
modifications: full-length
B6: P17813 (protein, UniProt P17813 1-658, looked up)
chain: MDRGTLPLAVALLLASCSLSPTSLAETVHCDLQPVGPERGEVTYTTSQVSKGCVAQAPNAILEVHVLFLEFPTGPSQLELTLQASKQNGTWPREVLLVLSVNSSVFLHLQALGIPLHLAYNSSLVTFQEPPGVNTTELPSFPKTQILEWAAERGPITSAAELNDPQSILLRLGQAQGSLSFCMLEASQDMGRTLEWRPRTPALVRGCHLEGVAGHKEAHILRVLPGHSAGPRTVTVKVELSCAPGDLDAVLILQGPPYVSWLIDANHNMQIWTTGEYSFKIFPEKNIRGFKLPDTPQGLLGEARMLNASIVASFVELPLASIVSLHASSCGGRLQTSPAPIQTTPPKDTCSPELLMSLIQTKCADDAMTLVLKKELVAHLKCTITGLTFWDPSCEAEDRGDKFVLRSAYSSCGMQVSASMISNEAVVNILSSSSPQRKKVHCLNMDSLSFQLGLYLSPHFLQASNTIEPGQQSFVQVRVSPSVSEFLLQLDSCHLDLGPEGGTVELIQGRAAKGNCVSLLSPSPEGDPRFSFLLHFYTVPIPKTGTLSCTVALRPKTGSQDQEVHRTVFMRLNIISPDLSGCTSKGLVLPAVLGITFGAFLIGALLTAALWYIYSHTRSPSKREPVVAVAAPASSESSSTNHSIGSTQSTPCSTSSMA
modifications: full-length
B7: Q00341 (protein, UniProt Q00341 1-1268, looked up)
chain: MSSVAVLTQESFAEHRSGLVPQQIKVATLNSEEESDPPTYKDAFPPLPEKAACLESAQEPAGAWGNKIRPIKASVITQVFHVPLEERKYKDMNQFGEGEQAKICLEIMQRTGAHLELSLAKDQGLSIMVSGKLDAVMKARKDIVARLQTQASATVAIPKEHHRFVIGKNGEKLQDLELKTATKIQIPRPDDPSNQIKITGTKEGIEKARHEVLLISAEQDKRAVERLEVEKAFHPFIAGPYNRLVGEIMQETGTRINIPPPSVNRTEIVFTGEKEQLAQAVARIKKIYEEKKKKTTTIAVEVKKSQHKYVIGPKGNSLQEILERTGVSVEIPPSDSISETVILRGEPEKLGQALTEVYAKANSFTVSSVAAPSWLHRFIIGKKGQNLAKITQQMPKVHIEFTEGEDKITLEGPTEDVNVAQEQIEGMVKDLINRMDYVEINIDHKFHRHLIGKSGANINRIKDQYKVSVRIPPDSEKSNLIRIEGDPQGVQQAKRELLELASRMENERTKDLIIEQRFHRTIIGQKGERIREIRDKFPEVIINFPDPAQKSDIVQLRGPKNEVEKCTKYMQKMVADLVENSYSISVPIFKQFHKNIIGKGGANIKKIREESNTKIDLPAENSNSETIIITGKRANCEAARSRILSIQKDLANIAEVEVSIPAKLHNSLIGTKGRLIRSIMEECGGVHIHFPVEGSGSDTVVIRGPSSDVEKAKKQLLHLAEEKQTKSFTVDIRAKPEYHKFLIGKGGGKIRKVRDSTGARVIFPAAEDKDQDLITIIGKEDAVREAQKELEALIQNLDNVVEDSMLVDPKHHRHFVIRRGQVLREIAEEYGGVMVSFPRSGTQSDKVTLKGAKDCVEAAKKRIQEIIEDLEAQVTLECAIPQKFHRSVMGPKGSRIQQITRDFSVQIKFPDREENAVHSTEPVVQENGDEAGEGREAKDCDPGSPRRCDIIIISGRKEKCEAAKEALEALVPVTIEVEVPFDLHRYVIGQKGSGIRKMMDEFEVNIHVPAPELQSDIIAITGLAANLDRAKAGLLERVKELQAEQEDRALRSFKLSVTVDPKYHPKIIGRKGAVITQIRLEHDVNIQFPDKDDGNQPQDQITITGYEKNTEAARDAILRIVGELEQMVSEDVPLDHRVHARIIGARGKAIRKIMDEFKVDIRFPQSGAPDPNCVTVTGLPENVEEAIDHILNLEEEYLADVVDSEALQVYMKPPAHEEAKAPSRGFVVRDAPWTASSSEKAPDMSSSEEFPSFGAQVAPKTLPWGPKR
modifications: full-length
B8: P0C7P4 (protein, UniProt P0C7P4 1-283, looked up)
chain: MQQIYTVKEIRSVAARSGPFAPVLSATSRGVAGALRPLVQATVPATPEQPVLDLKRPFLSRESLSGQAVRRPLVASVGLNVPASVCYSHTDIKVPDFSEYRRLEVLDSTKSSRESTEARKGFSYLVTGVTTVGVAYAAKNAVTQFVSSMSASADVLALAKIEIKLSDIPEGKNMAFKWRGKPLFVRHRTQKEIKQEAAVELSQLRDPQHDLDRVKKPEWVILIGVCTHLGCVPIANAGDFGGYYCPCHGSHYDASGRIRLGPATLNLEVPTYEFTSDDMVIVG
modifications: full-length
B9: Q9NQC3 (protein, UniProt Q9NQC3 1-1192, looked up)
chain: MEDLDQSPLVSSSDSPPRPQPAFKYQFVREPEDEEEEEEEEEEDEDEDLEELEVLERKPAAGLSAAPVPTAPAAGAPLMDFGNDFVPPAPRGPLPAAPPVAPERQPSWDPSPVSSTVPAPSPLSAAAVSPSKLPEDDEPPARPPPPPPASVSPQAEPVWTPPAPAPAAPPSTPAAPKRRGSSGSVDETLFALPAASEPVIRSSAENMDLKEQPGNTISAGQEDFPSVLLETAASLPSLSPLSAASFKEHEYLGNLSTVLPTEGTLQENVSEASKEVSEKAKTLLIDRDLTEFSELEYSEMGSSFSVSPKAESAVIVANPREEIIVKNKDEEEKLVSNNILHNQQELPTALTKLVKEDEVVSSEKAKDSFNEKRVAVEAPMREEYADFKPFERVWEVKDSKEDSDMLAAGGKIESNLESKVDKKCFADSLEQTNHEKDSESSNDDTSFPSTPEGIKDRSGAYITCAPFNPAATESIATNIFPLLGDPTSENKTDEKKIEEKKAQIVTEKNTSTKTSNPFLVAAQDSETDYVTTDNLTKVTEEVVANMPEGLTPDLVQEACESELNEVTGTKIAYETKMDLVQTSEVMQESLYPAAQLCPSFEESEATPSPVLPDIVMEAPLNSAVPSAGASVIQPSSSPLEASSVNYESIKHEPENPPPYEEAMSVSLKKVSGIKEEIKEPENINAALQETEAPYISIACDLIKETKLSAEPAPDFSDYSEMAKVEQPVPDHSELVEDSSPDSEPVDLFSDDSIPDVPQKQDETVMLVKESLTETSFESMIEYENKEKLSALPPEGGKPYLESFKLSLDNTKDTLLPDEVSTLSKKEKIPLQMEELSTAVYSNDDLFISKEAQIRETETFSDSSPIEIIDEFPTLISSKTDSFSKLAREYTDLEVSHKSEIANAPDGAGSLPCTELPHDLSLKNIQPKVEEKISFSDDFSKNGSATSKVLLLPPDVSALATQAEIESIVKPKVLVKEAEKKLPSDTEKEDRSPSAIFSAELSKTSVVDLLYWRDIKKTGVVFGASLFLLLSLTVFSIVSVTAYIALALLSVTISFRIYKGVIQAIQKSDEGHPFRAYLESEVAISEELVQKYSNSALGHVNCTIKELRRLFLVDDLVDSLKFAVLMWVFTYVGALFNGLTLLILALISLFSVPVIYERHQAQIDHYLGLANKNVKDAMAKIQAKIPGLKRKAE
modifications: full-length

Assay: Proteomics analysis (trypsin digest, LC-MS/MS) of hMSC ghosts and derived CDLs, conditioned or unconditioned by PC3 medium
Parameters: species or system human
Conditions: LC-MS/MS peak area per protein; for Ratio of expression Cond. CDLs/Cond. Ghosts: CDLs derived from conditioned hMSCs versus conditioned ghosts; for Ratio of expression Cond Ghosts/Ghosts: hMSC ghosts conditioned by PC3 medium versus unconditioned ghosts

Molecule	Ratio of expression Cond. CDLs/Cond. Ghosts	Ratio of expression Cond Ghosts/Ghosts
B1	21%	100%
B2	21%	100%
B3	15%	100%
B4	12%	100%
B5	12%	100%
B6	11%	100%
B7	11%	100%
B8	11%	100%
B9	10%	100%
